{"source": "patent US10729710B2", "about": "“Catecholamine prodrugs for use in the treatment of Parkinson's disease” (H. Lundbeck A/S, priority 2017, dated 2020)", "tested_on": "male CD rats", "experiment": "Rat locomotor activity (hyperactivity) assay, open field", "format": "in vivo", "method": "In total, 206 male CD rats (Charles River, Germany) weighing 200-250 grams (165-190 grams upon arrival) were used in the study. Animals were housed at a standard temperature (22±1° C.) and in a light-controlled environment (lights on from 7 am to […]) with ad libitum access to food and water. The experiment described below was performed in accordance with the standard operating procedures of Charles River Discovery Research Services Finland Ltd. and in accordance with the national Animal Experiment Board of Finland (Eläinkoelautakunta, ELLA) authority on animal testing.\nThe test device is a square Plexiglass-arena (measuring 40×40×40 cm), in which the movement paths of the rats are recorded by an activity monitor (Med. Associates Inc.). Before the test period is initiated, rats are habituated to their test cage for 60 minutes. Upon completion of habituation, animals were treated with either compound or vehicle and placed back into the open field apparatus. The main test parameter measured is ambulatory distance (recorded in 5 minute segments). Overall time of measurement after receiving initial treatment was 360 minutes. Total follow up period in the study was 420 min, including 60 min of habituation.", "note": "At least one structure is not confirmed: it was looked up by name or label, or the drawing left a doubt.", "data": [{"smiles": "CN1CCc2cccc3c2[C@H]1Cc1ccc(O)c(O)c1-3", "note": "[apomorphine]", "values": [{"measurement": "relationship between behavioral effect and plasma concentrations", "setting": "(Id-ia) 100 μg/kg p.o. (FIG. 5), apomorphine 3 mg/kg s.c. (FIG. 6)", "result": "correlation between plasma concentrations of apomorphine and hyperactive behavior"}, {"measurement": "start of locomotor activity effect post-administration", "setting": "(Id-ia) 10 to 300 μg/kg p.o., apomorphine 3 mg/kg s.c., pramipexole 0.3 mg/kg s.c.", "result": "immediate"}, {"measurement": "total distance travelled vs vehicle", "setting": "FIG. 4, (Id-ia) p.o., apomorphine 3 mg/kg s.c., pramipexole 0.3 mg/kg s.c.", "result": "significantly increased activity"}]}]}
